Experimental findings from PubChem BioAssay AID1487 (National Center for Advancing Translational Sciences (NCATS), 2009) are described below.

For orientation: AC50 means the concentration at which the activity in the assay is half-maximal.

This assay can be described thus: qHTS Assay for Modulators of Lamin A Splicing. The following applies: HeLa LMNA splicing GFP/RFP minigene ratio, 48 h. The method in brief:
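S3 HeLa cells stably expressing lamin A-EGFP splicing minigene plus DsRed2, 600 cells/well, 48 h compound exposure at 37C. Laser-scanning cytometry; analysed as GFP (500-530 nm)/RFP (575-640 nm) total intensity ratio; 0.5% DMSO vehicle.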

[1] abbreviates: measured here: RFP viability control channel.
The mark [2] stands for this setting: measured here: GFP splicing reporter channel.

This is one part of the list. The main result of the screen is listed elsewhere. These columns were measured beside it and carry no call. Most of these compounds were active or inconclusive in the main read-out, so they are no random draw. Potencies come from curve fits of mixed quality, noted in brackets.

`O=c1[nH]c(/C(Cl)=C/c2c(F)cccc2Cl)nc2cc(Cl)ccc12`: the AC50 under setting [1] is 3.16 µM [rising, partial curve].
Take `CCN(CC(=O)Nc1ccc([N+](=O)[O-])cc1OC)CC(=O)NC(C)(C)C`: the AC50 reads like this: under setting [2], 35.5 µM [rising, single point]; under setting [1], 35.5 µM [rising, single point].
Turning to `CCOC(=O)C1(Cc2ccccc2Cl)CCN(C(=O)CCn2ccnc2C)CC1`, the AC50 reads like this: under setting [2], 28.2 µM [falling, partial curve, poor fit]; under setting [1], 0.00355 µM [falling, full curve, poor fit].
With `CS(=O)(=O)Nc1cccc(-c2nc(N3CCOCC3)c3ccccc3n2)c1`, the AC50 under setting [1] is 35.5 µM [rising, single point].
`Cc1nc2ccc(S(=O)(=O)Nc3cccc(-c4nc5cccnc5s4)c3)cc2s1`: the AC50 under setting [1] was 8.91 µM [rising, partial curve].
In the case of `Cc1cc(S(=O)(=O)NCC(c2ccco2)S(=O)(=O)c2cccs2)ccc1F` (configuration not stated), the concentration at half-maximal activity (AC50) is 0.0794 µM [falling, full curve, poor fit] under setting [2] and 0.0708 µM [falling, full curve, poor fit] under setting [1].
Turning to `COc1ccccc1CNC(=O)c1ccc2c(=O)n(CCCN3CCCC3=O)c(=S)[nH]c2c1`, under setting [2], the concentration at half-maximal activity (AC50) is 3.55 µM [rising, partial curve, poor fit].
Turning to `Nc1nc(=S)[nH]c2c1C1(CCCCC1)Cc1ccccc1-2`, the AC50 under setting [1] is 25.1 µM [rising, single point].
`Cc1ccc(SCCNC(=O)/C=C/c2ccccc2Cl)cc1`: the AC50 is 25.1 µM [falling, single point] under setting [2] and 25.1 µM [falling, single point] under setting [1].
For `O=C(c1cccc(S(=O)(=O)N2CCOCC2)c1)N(Cc1ccc(F)cc1)Cc1ccco1`, the AC50 is, setting by setting: under setting [2], 35.5 µM [falling, single point]; under setting [1], 20 µM [falling, partial curve, poor fit].
`COc1ccc(C(=O)Nc2cccc(C(=O)NCc3ccccc3)c2)cc1`: the AC50 under setting [2] is 7.94 µM [rising, partial curve, poor fit].
`Cc1oc2ccc(O)c(CN3CCOCC3)c2c1C(=O)c1ccc(Cl)cc1`: the AC50 under setting [1] is 14.1 µM [rising, single point].
As for `CCOc1ccccc1NC(=O)/C=C/C(N)=O`, the AC50 is 35.5 µM [falling, single point] under setting [2] and 35.5 µM [falling, single point] under setting [1].
Regarding `Cc1ccc(S(=O)(=O)Oc2ccccc2/C=N/NC(N)=S)cc1`, the AC50 under setting [1] is 3.16 µM [rising, single point].
For the compound `O=C(Nc1cccn(Cc2c(Cl)cccc2Cl)c1=O)c1c(Cl)cccc1Cl`, the AC50 under setting [2] was 20 µM [falling, partial curve, poor fit].
For the compound `CC(C)(C(=O)c1cccnc1)c1cccnc1`, the AC50 runs as follows: under setting [2], 12.6 µM [falling, single point]; under setting [1], 7.94 µM [falling, single point].
On to `COc1ccccc1CNC(=O)c1ccc(-c2ccccc2Cl)o1`, for which, under setting [1], the AC50 was 17.8 µM [rising, partial curve].
For the compound `Cc1ccccc1-c1ccc2ncnc(N3CCOCC3)c2c1`, the AC50 under setting [2] is 1.26 µM [falling, partial curve, poor fit].
With `CCOc1nc(C#N)nc(N2CCCCC2)n1`, the AC50 under setting [1] is 11.2 µM [rising, single point].
With `NCCCCNCCCN`, the AC50 under setting [1] is 0.891 µM [rising, full curve, poor fit].
Turning to `CCn1c2ccccc2c2cc(NS(=O)(=O)c3ccccc3C)ccc21`, the AC50 is 20 µM [falling, partial curve] under setting [2] and 14.1 µM [falling, partial curve] under setting [1].
Take `C[n+]1cc(C(=O)N2CCCCC2)ccc1/C=C/c1c[nH]c2ccccc12`: the AC50 under setting [1] is 0.158 µM [falling, partial curve].
With `COc1cc(OC)cc(C(=O)N[C@H](C(=O)OCC(=O)c2ccc(F)cc2)C(C)C)c1`, the AC50 under setting [1] was 35.5 µM [rising, single point].
Consider `CCN(CC)S(=O)(=O)c1cccc(NC(=O)COC(=O)/C=C/c2ccco2)c1`, for which, under setting [2], the AC50 is 0.0316 µM [rising, full curve, poor fit].
As to `Cc1cc(Nc2nc(Cl)c(Cl)cc2Cl)n(-c2ccccc2)n1`, the AC50 under setting [1] is 7.94 µM [rising, partial curve, poor fit].
On the same count and under the same terms, with `CON(C)c1nc(OCCNC(=O)OCc2ccc(Cl)cc2C)nc(N(C)C)n1` the figure was 35.5 µM [rising, single point].
As to `NC(Cc1cccc(-c2ccccc2CP(=O)(O)O)c1)C(=O)O` (configuration not stated), the AC50 under setting [2] is 0.0251 µM [rising, full curve, poor fit].
With `O=C(Nc1ccc(N2CCN(C(=O)c3ccc(Cl)cc3)CC2)cc1)c1ccc2c(c1)OCCO2`, the AC50 reads like this: under setting [2], 3.55 µM [rising, single point]; under setting [1], 3.98 µM [rising, partial curve, poor fit].
For the compound `Cc1ccc(S(=O)(=O)Nc2ccc3c(c2)CCC3)cc1C`, the AC50 under setting [1] is 11.2 µM [rising, partial curve].
As for `CC(C)(C)OC(=O)[C@H]1[C@H](c2ccc([N+](=O)[O-])cc2)C2(C(=O)c3ccccc3C2=O)C2c3ccccc3C=NN21` (some centres not stated), the AC50 reads like this: under setting [2], 10 µM [rising, partial curve, poor fit]; under setting [1], 12.6 µM [rising, partial curve, poor fit].
Take `CCCCCCNC(=O)CC(NS(=O)(=O)c1ccc(NC(C)=O)cc1)C(C)C` (configuration not stated): the AC50 under setting [1] was 12.6 µM [rising, single point].
For `O=C(Cc1ccc(-n2c(=O)[nH]c3ccsc3c2=O)cc1)N1CCN(c2ccc(Cl)cc2)CC1`, the AC50 under setting [1] was 35.5 µM [rising, single point].
For `C/C(CC(=O)Nc1ccc(C)c(Cl)c1)=N\NC(=O)c1ccncc1`, the AC50 under setting [2] is 0.00447 µM [rising, full curve, poor fit].
In the case of `Brc1ccc(OCc2nc(-c3ccccn3)n[nH]2)cc1`, under setting [1], the AC50 was 22.4 µM [rising, single point].
With `CN(C)/N=C/c1cc([N+](=O)[O-])ccc1O`, the AC50 under setting [2] was 0.0501 µM [falling, full curve, poor fit].
`CC1=C(C(N)=O)C(c2ccc(F)cc2)n2nc(-c3ccccc3Cl)nc2N1` (configuration not stated): the AC50 under setting [1] is 1.41 µM [falling, full curve, poor fit].
As for `COc1cc(C2Nc3ccccc3C(=O)N2c2ccccc2)ccc1O` (configuration not stated), the AC50 under setting [2] is 0.316 µM [falling, full curve].
With `CC1CCN(S(=O)(=O)c2ccc(NC(=O)Cn3nnc(-c4ccccc4F)n3)cc2)CC1`, under setting [2], the AC50 is 2.24 µM [rising, partial curve].
`CC(=O)Nn1cnc2c(c1=O)C1(CCCCC1)Cc1ccccc1-2`: under setting [1], the AC50 is 31.6 µM [rising, single point].
On to `Nc1nc(SCC(=O)Nc2ccccc2)nc2nc3c(cc12)CCCC3`, for which, under setting [1], the AC50 was 35.5 µM [rising, single point].
In the case of `COc1ccc(-c2nnc3ccc(SC(C(C)=O)C(C)=O)nn23)cc1OC`, the AC50 under setting [1] was 14.1 µM [rising, single point].
`O=C(/C=C/c1ccc(S(=O)(=O)N2CCOCC2)cc1)NC(=S)NCCCn1ccnc1`: the AC50 is 0.0251 µM [falling, full curve, poor fit] under setting [2] and 14.1 µM [rising, single point] under setting [1].
In the case of `Cc1ccc(S(=O)(=O)NC(CC(=O)N2CCc3ccccc32)c2ccco2)cc1` (configuration not stated), the AC50 was 14.1 µM [rising, single point] under setting [2] and 11.2 µM [rising, single point] under setting [1].
`Cc1csc(NC(=O)c2cc3c(s2)CCC3)n1`: the AC50 under setting [1] was 14.1 µM [rising, partial curve].
Consider `CC(=O)N(O)CCCCCNC(=O)CCC(=O)N(O)CCCCCNC(=O)CCC(=O)N(O)CCCCCN`, for which the AC50 runs as follows: under setting [2], 14.1 µM [falling, single point]; under setting [1], 15.8 µM [rising, partial curve, poor fit].
With `CCCC1O[C@@H]2C[C@H]3[C@@H]4CCC5=CC(=O)C=C[C@]5(C)C4[C@@H](O)C[C@]3(C)[C@]2(C(=O)CO)O1` (some centres not stated), the AC50 under setting [2] was 5.62 µM [falling, partial curve, poor fit] and the AC50 under setting [1] is 0.00224 µM [falling, full curve, poor fit].
With `O=C(Cn1ncc(Cl)c(Cl)c1=O)N1CCN(S(=O)(=O)c2ccc3ccccc3c2)CC1`, the AC50 reads like this: under setting [2], 3.16 µM [falling, full curve]; under setting [1], 5.62 µM [falling, single point].
Turning to `COc1ccc(CCN=C(N)NS(=O)(=O)c2ccc(OC)cc2)cc1`, the AC50 by setting is: under setting [2], 11.2 µM [rising, partial curve]; under setting [1], 11.2 µM [rising, partial curve].
On to `Cc1ccc(NC(=O)CN2C(=O)COc3ccc(S(=O)(=O)NC4CCCC4)cc32)cc1Cl`, for which the AC50 under setting [2] is 35.5 µM [falling, single point].
In the case of `COc1cccc(-c2nnc(SC(C(=O)c3c[nH]c4ccccc34)c3ccccc3)n2C)c1` (configuration not stated), the AC50 under setting [2] was 35.5 µM [falling, single point].
As for `COc1cccc(NCCC(=O)c2cccc([N+](=O)[O-])c2)c1`, the AC50 was 12.6 µM [falling, partial curve, poor fit] under setting [2] and 35.5 µM [falling, partial curve, poor fit] under setting [1].
Regarding `Cc1sc(NC(=O)c2ccco2)nc1-c1ccc2c(c1)CC(C)N2C(=O)C1CC1` (configuration not stated), under setting [2], the AC50 is 11.2 µM [falling, partial curve, poor fit].
As for `O=S(=O)(c1ccc2c(c1)OCCO2)N1CCN(c2cccc(Cl)c2)CC1`, the AC50 under setting [2] was 10 µM [rising, partial curve] and the AC50 under setting [1] was 12.6 µM [rising, single point].
As to `Cc1ccnc(N2C(=O)CSC2c2ccc(Cl)cc2)c1` (configuration not stated), under setting [2], the AC50 was 0.0282 µM [falling, full curve, poor fit].
